Data from the supplement of paper PMC6411743.
± gives the standard deviation of the averaged measurements. This is one part of the list.

Amino acid sequences for entries named in this document (tags omitted). A change or cut given only in a name is not applied to a line headed by its entry.
UniProt Q7L0Y3: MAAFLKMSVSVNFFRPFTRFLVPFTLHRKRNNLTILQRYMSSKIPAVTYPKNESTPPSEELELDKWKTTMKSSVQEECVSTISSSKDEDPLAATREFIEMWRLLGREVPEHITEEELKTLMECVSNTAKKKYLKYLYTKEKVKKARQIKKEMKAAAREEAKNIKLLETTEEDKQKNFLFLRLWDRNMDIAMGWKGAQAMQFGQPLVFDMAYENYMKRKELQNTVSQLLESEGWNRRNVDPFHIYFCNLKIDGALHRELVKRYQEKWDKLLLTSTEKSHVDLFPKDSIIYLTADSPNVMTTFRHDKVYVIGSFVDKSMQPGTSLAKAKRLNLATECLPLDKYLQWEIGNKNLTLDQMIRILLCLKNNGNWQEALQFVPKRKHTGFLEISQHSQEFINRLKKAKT
UniProt Q6KC79: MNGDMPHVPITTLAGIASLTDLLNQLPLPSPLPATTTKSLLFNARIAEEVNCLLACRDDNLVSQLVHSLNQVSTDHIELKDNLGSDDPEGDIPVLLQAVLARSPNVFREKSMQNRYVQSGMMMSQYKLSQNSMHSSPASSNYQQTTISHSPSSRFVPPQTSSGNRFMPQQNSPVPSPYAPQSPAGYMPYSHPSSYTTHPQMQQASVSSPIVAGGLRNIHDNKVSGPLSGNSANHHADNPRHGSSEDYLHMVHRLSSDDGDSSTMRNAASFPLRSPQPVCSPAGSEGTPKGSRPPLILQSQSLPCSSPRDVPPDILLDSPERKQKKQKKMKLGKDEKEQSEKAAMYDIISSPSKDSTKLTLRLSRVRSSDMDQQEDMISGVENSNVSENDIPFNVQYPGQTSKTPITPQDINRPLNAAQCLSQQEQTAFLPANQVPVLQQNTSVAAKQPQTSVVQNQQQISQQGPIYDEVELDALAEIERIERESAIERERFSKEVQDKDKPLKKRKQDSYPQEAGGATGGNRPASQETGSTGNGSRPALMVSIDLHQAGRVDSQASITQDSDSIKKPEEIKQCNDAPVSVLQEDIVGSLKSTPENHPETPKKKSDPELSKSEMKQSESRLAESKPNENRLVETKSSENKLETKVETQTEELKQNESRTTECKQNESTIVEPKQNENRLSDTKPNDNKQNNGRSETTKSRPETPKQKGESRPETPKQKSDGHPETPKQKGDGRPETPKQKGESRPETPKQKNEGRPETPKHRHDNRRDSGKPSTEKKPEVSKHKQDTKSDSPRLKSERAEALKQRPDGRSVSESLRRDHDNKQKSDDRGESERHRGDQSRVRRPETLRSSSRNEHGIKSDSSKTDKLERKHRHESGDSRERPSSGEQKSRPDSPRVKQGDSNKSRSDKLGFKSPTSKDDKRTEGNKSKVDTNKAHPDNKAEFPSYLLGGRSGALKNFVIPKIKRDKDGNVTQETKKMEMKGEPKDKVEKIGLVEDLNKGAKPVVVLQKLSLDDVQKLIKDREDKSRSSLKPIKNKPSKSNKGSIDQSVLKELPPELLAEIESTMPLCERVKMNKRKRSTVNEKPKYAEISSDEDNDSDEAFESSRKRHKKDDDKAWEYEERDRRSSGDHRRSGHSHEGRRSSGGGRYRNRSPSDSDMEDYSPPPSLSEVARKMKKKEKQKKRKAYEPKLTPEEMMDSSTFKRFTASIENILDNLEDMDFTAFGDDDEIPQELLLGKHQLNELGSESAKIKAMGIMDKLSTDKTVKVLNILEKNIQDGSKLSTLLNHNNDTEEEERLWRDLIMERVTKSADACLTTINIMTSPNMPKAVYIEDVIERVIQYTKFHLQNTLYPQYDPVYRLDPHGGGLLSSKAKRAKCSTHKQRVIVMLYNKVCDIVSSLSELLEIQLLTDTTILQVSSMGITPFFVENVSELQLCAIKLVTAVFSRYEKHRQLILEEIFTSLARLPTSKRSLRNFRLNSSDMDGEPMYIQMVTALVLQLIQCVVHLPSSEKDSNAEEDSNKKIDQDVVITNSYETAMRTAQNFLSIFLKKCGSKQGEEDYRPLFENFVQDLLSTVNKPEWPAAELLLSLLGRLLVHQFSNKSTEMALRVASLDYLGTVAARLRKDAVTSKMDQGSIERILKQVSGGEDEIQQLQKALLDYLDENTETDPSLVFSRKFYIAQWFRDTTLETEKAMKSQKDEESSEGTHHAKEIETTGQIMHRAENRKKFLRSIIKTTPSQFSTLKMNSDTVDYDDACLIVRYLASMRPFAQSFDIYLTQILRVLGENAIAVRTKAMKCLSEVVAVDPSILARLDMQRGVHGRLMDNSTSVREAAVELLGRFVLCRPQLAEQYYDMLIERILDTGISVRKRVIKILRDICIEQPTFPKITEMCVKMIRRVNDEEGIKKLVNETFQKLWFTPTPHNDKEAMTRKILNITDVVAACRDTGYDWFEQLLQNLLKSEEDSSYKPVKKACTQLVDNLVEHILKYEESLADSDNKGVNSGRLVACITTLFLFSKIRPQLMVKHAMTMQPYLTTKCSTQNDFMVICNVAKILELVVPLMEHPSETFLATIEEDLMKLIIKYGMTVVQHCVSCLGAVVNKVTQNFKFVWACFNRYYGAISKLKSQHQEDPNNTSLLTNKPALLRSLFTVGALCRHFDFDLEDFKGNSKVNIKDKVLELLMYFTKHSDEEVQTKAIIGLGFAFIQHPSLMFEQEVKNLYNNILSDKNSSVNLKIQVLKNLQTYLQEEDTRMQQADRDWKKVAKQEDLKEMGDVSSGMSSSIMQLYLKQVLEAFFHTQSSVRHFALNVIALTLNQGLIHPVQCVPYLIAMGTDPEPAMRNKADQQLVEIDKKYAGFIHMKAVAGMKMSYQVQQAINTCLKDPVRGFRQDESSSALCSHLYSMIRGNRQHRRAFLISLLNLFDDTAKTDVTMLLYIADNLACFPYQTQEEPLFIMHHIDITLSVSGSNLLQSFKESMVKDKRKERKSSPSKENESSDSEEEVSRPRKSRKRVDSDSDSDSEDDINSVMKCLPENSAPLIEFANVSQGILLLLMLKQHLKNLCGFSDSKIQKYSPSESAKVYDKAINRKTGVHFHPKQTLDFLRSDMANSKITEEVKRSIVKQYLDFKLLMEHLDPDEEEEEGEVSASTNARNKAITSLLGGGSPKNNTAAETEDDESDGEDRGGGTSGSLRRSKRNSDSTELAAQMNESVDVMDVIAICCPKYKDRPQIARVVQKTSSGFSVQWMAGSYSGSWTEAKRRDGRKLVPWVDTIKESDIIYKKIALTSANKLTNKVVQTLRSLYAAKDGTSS
UniProt Q7L4I2: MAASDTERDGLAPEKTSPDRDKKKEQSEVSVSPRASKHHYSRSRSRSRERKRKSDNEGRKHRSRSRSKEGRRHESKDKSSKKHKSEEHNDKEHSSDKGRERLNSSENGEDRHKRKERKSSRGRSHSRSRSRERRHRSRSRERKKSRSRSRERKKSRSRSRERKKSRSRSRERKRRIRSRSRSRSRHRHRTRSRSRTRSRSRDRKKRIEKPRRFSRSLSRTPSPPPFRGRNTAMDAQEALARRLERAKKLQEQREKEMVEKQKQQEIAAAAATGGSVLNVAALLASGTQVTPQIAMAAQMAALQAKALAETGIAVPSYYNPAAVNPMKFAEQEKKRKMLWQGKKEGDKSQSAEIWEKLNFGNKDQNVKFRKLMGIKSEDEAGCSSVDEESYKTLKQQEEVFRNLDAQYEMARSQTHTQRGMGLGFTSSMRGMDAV
UniProt Q6IQ22: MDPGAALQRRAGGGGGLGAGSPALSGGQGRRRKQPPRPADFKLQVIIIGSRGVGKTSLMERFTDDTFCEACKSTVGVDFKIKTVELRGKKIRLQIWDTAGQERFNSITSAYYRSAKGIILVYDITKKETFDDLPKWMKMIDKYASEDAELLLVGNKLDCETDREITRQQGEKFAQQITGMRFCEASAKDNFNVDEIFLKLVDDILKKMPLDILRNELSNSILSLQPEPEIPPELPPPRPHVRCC
UniProt Q86V48: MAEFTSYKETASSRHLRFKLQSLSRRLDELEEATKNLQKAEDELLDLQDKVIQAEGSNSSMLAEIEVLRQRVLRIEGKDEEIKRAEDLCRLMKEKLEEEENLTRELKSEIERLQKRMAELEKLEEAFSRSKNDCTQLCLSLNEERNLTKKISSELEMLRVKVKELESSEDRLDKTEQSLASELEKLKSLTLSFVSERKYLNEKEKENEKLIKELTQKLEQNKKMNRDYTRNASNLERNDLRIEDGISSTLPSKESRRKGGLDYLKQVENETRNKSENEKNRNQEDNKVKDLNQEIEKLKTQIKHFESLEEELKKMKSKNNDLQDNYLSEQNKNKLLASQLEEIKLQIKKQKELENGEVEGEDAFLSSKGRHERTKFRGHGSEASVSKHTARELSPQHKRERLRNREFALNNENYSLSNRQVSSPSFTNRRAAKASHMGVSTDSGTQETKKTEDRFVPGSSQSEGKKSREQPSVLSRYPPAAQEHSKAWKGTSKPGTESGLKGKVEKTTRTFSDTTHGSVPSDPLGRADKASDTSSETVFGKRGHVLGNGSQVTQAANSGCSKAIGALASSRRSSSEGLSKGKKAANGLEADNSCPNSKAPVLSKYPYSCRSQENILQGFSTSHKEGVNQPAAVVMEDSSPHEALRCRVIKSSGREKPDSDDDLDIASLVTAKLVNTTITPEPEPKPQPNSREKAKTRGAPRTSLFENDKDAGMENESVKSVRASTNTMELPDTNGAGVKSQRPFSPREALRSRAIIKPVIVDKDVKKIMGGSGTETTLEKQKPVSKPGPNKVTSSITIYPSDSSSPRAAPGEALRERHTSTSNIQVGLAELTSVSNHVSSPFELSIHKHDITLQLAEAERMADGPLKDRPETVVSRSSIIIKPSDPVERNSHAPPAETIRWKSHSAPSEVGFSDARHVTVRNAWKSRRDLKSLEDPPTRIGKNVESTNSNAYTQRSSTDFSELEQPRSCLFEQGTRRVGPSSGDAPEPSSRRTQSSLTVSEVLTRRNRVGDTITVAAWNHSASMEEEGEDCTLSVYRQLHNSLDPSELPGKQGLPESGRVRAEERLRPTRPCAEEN
UniProt Q6P1N0: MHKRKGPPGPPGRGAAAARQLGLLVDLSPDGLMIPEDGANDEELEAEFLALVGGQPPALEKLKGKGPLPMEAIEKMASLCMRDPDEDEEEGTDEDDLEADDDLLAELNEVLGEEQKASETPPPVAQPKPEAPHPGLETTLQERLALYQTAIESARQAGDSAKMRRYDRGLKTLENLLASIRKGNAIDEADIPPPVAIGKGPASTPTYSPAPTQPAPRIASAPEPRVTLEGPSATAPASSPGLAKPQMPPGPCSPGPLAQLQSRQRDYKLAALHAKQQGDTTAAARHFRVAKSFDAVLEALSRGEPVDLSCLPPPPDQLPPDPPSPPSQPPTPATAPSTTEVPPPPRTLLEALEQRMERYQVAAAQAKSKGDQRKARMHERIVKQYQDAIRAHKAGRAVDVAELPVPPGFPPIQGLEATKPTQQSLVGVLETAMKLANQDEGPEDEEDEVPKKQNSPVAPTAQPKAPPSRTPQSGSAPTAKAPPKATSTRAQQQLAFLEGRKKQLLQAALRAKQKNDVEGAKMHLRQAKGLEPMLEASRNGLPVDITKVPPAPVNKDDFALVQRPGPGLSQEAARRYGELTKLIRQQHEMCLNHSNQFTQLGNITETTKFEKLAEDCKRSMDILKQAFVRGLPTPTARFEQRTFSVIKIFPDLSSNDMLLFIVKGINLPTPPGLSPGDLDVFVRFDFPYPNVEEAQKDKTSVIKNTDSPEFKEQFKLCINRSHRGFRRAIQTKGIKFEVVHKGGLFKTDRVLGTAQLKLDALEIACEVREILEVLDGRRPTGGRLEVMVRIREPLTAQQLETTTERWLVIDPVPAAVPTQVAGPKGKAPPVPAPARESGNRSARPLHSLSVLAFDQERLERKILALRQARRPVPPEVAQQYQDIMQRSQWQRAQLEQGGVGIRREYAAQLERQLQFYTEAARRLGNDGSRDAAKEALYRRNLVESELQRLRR
UniProt Q6PJ69: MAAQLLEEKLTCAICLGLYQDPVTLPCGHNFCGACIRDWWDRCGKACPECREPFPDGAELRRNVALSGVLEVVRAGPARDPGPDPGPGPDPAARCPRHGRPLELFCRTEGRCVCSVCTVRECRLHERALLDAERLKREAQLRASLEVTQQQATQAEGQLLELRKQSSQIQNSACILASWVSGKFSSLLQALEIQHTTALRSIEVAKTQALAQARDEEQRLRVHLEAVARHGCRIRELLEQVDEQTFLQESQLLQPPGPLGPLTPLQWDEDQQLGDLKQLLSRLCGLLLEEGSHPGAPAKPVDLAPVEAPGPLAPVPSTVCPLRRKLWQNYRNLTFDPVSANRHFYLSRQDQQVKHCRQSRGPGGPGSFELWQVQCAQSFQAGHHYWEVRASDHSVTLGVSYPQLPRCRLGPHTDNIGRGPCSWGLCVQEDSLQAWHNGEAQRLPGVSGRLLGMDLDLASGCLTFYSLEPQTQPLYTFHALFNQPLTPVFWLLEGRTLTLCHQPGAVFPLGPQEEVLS

Compound: Nc1nc2c(ncn2[C@@H]2O[C@H](COP(=O)(O)OP(=O)(O)OP(=O)(O)O)[C@@H](O)[C@H]2O)c(=O)[nH]1 [guanosine triphosphate]
Assay: NP40-soluble protein abundance relative to vehicle (solubility fold change) (ratio); higher = more soluble protein in presence of GTP
In short: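 Across three independent experiments, values are fold changes against the detergent-processed vehicle for each replicate, based on vsn-normalised intensities. The samples were Jurkat crude lysate treated with eight concentrations (0.1 to 10 mM) for 10 min at room temperature and then 3 min at 37 °C. Lysate was solubilised with 0.8% NP40 and benzonase, ultracentrifuged, and the supernatant analysed by TMT-labelled LC-MS/MS.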

Target: UniProt Q7L0Y3
- NP40-soluble protein abundance (concentration: 0.1mM): 1.04 ± 0.02
- NP40-soluble protein abundance (concentration: 0.5mM): 1.01 ± 0.02
- NP40-soluble protein abundance (concentration: 1mM): 0.985 ± 0.02
- NP40-soluble protein abundance (concentration: 2mM): 1.02 ± 0.045
- NP40-soluble protein abundance (concentration: 4mM): 1.06 ± 0.041
- NP40-soluble protein abundance (concentration: 6mM): 1.066 ± 0.00052
- NP40-soluble protein abundance (concentration: 8mM): 1.06 ± 0.05
- NP40-soluble protein abundance (concentration: 10mM): 1.05 ± 0.048

Target: UniProt Q6KC79 and related entries
- NP40-soluble protein abundance (concentration: 0.1mM): 1.01 ± 0.021
- NP40-soluble protein abundance (concentration: 0.5mM): 1.042 ± 0.009
- NP40-soluble protein abundance (concentration: 1mM): 1.04 ± 0.039
- NP40-soluble protein abundance (concentration: 2mM): 1.1 ± 0.043
- NP40-soluble protein abundance (concentration: 4mM): 1.1 ± 0.053
- NP40-soluble protein abundance (concentration: 6mM): 1.15 ± 0.093
- NP40-soluble protein abundance (concentration: 8mM): 1.16 ± 0.1
- NP40-soluble protein abundance (concentration: 10mM): 1.15 ± 0.091

Target: UniProt Q7Z6B0 and related entries
- NP40-soluble protein abundance (concentration: 0.1mM): 0.942 ± 0.046
- NP40-soluble protein abundance (concentration: 0.5mM): 0.925 ± 0.052
- NP40-soluble protein abundance (concentration: 1mM): 0.918 ± 0.087
- NP40-soluble protein abundance (concentration: 2mM): 0.923 ± 0.076
- NP40-soluble protein abundance (concentration: 4mM): 0.89 ± 0.075
- NP40-soluble protein abundance (concentration: 6mM): 0.923 ± 0.069
- NP40-soluble protein abundance (concentration: 8mM): 0.914 ± 0.069
- NP40-soluble protein abundance (concentration: 10mM): 0.976 ± 0.061

Target: UniProt Q6UXH1 and related entries
- NP40-soluble protein abundance (concentration: 0.1mM): 0.968 ± 0.018
- NP40-soluble protein abundance (concentration: 0.5mM): 0.941 ± 0.046
- NP40-soluble protein abundance (concentration: 1mM): 1.03 ± 0.09
- NP40-soluble protein abundance (concentration: 2mM): 0.959 ± 0.093
- NP40-soluble protein abundance (concentration: 4mM): 0.935 ± 0.096
- NP40-soluble protein abundance (concentration: 6mM): 0.959 ± 0.12
- NP40-soluble protein abundance (concentration: 8mM): 0.95 ± 0.061
- NP40-soluble protein abundance (concentration: 10mM): 0.956 ± 0.088

Target: ANKRD11 (UniProt Q6UB99)
- NP40-soluble protein abundance (concentration: 0.1mM): 1.01 ± 0.024
- NP40-soluble protein abundance (concentration: 0.5mM): 1.01 ± 0.092
- NP40-soluble protein abundance (concentration: 1mM): 1.1 ± 0.027
- NP40-soluble protein abundance (concentration: 2mM): 1.1 ± 0.06
- NP40-soluble protein abundance (concentration: 4mM): 1.1 ± 0.041
- NP40-soluble protein abundance (concentration: 6mM): 1.08 ± 0.042
- NP40-soluble protein abundance (concentration: 8mM): 1.18 ± 0.073
- NP40-soluble protein abundance (concentration: 10mM): 1.17 ± 0.073

Target: LRSAM1 (UniProt Q6UWE0)
- NP40-soluble protein abundance (concentration: 0.1mM): 1.11 ± 0.11
- NP40-soluble protein abundance (concentration: 0.5mM): 1.03 ± 0.091
- NP40-soluble protein abundance (concentration: 1mM): 0.998 ± 0.054
- NP40-soluble protein abundance (concentration: 2mM): 0.991 ± 0.054
- NP40-soluble protein abundance (concentration: 4mM): 1.05 ± 0.17
- NP40-soluble protein abundance (concentration: 6mM): 0.942 ± 0.033
- NP40-soluble protein abundance (concentration: 8mM): 0.985 ± 0.22
- NP40-soluble protein abundance (concentration: 10mM): 0.919 ± 0.13

Target: USP34 (UniProt Q70CQ2)
- NP40-soluble protein abundance (concentration: 0.1mM): 1.07 ± 0.075
- NP40-soluble protein abundance (concentration: 0.5mM): 1.06 ± 0.056
- NP40-soluble protein abundance (concentration: 1mM): 0.983 ± 0.069
- NP40-soluble protein abundance (concentration: 2mM): 1.01 ± 0.094
- NP40-soluble protein abundance (concentration: 4mM): 1.04 ± 0.094
- NP40-soluble protein abundance (concentration: 6mM): 1 ± 0.12
- NP40-soluble protein abundance (concentration: 8mM): 0.987 ± 0.069
- NP40-soluble protein abundance (concentration: 10mM): 0.966 ± 0.073

Target: UniProt Q6Y1H2
- NP40-soluble protein abundance (concentration: 0.1mM): 0.918 ± 0.052
- NP40-soluble protein abundance (concentration: 0.5mM): 0.879 ± 0.026
- NP40-soluble protein abundance (concentration: 1mM): 0.908 ± 0.012
- NP40-soluble protein abundance (concentration: 2mM): 0.871 ± 0.066
- NP40-soluble protein abundance (concentration: 4mM): 0.894 ± 0.026
- NP40-soluble protein abundance (concentration: 6mM): 0.854 ± 0.038
- NP40-soluble protein abundance (concentration: 8mM): 0.906 ± 0.05
- NP40-soluble protein abundance (concentration: 10mM): 0.873 ± 0.051

Target: DENND1B (UniProt Q6P3S1)
- NP40-soluble protein abundance (concentration: 0.1mM): 1.08 ± 0.11
- NP40-soluble protein abundance (concentration: 0.5mM): 1.1 ± 0.12
- NP40-soluble protein abundance (concentration: 1mM): 1.09 ± 0.13
- NP40-soluble protein abundance (concentration: 2mM): 1.01 ± 0.13
- NP40-soluble protein abundance (concentration: 4mM): 1.05 ± 0.17
- NP40-soluble protein abundance (concentration: 6mM): 1.05 ± 0.17
- NP40-soluble protein abundance (concentration: 8mM): 1.14 ± 0.11
- NP40-soluble protein abundance (concentration: 10mM): 1.05 ± 0.088

Target: ZNF318 (UniProt Q5VUA4)
- NP40-soluble protein abundance (concentration: 0.1mM): 1.08 ± 0.083
- NP40-soluble protein abundance (concentration: 0.5mM): 1.07 ± 0.071
- NP40-soluble protein abundance (concentration: 1mM): 1.19 ± 0.13
- NP40-soluble protein abundance (concentration: 2mM): 1.2 ± 0.057
- NP40-soluble protein abundance (concentration: 4mM): 1.24 ± 0.17
- NP40-soluble protein abundance (concentration: 6mM): 1.25 ± 0.12
- NP40-soluble protein abundance (concentration: 8mM): 1.33 ± 0.18
- NP40-soluble protein abundance (concentration: 10mM): 1.22 ± 0.21

Target: UniProt Q7L4I2 and related entries
- NP40-soluble protein abundance (concentration: 0.1mM): 0.98 ± 0.099
- NP40-soluble protein abundance (concentration: 0.5mM): 0.999 ± 0.094
- NP40-soluble protein abundance (concentration: 1mM): 1.06 ± 0.013
- NP40-soluble protein abundance (concentration: 2mM): 0.991 ± 0.2
- NP40-soluble protein abundance (concentration: 4mM): 0.895 ± 0.11
- NP40-soluble protein abundance (concentration: 6mM): 0.918 ± 0.14
- NP40-soluble protein abundance (concentration: 8mM): 0.942 ± 0.06
- NP40-soluble protein abundance (concentration: 10mM): 0.951 ± 0.11

Target: UniProt Q7Z333 and related entries
- NP40-soluble protein abundance (concentration: 0.1mM): 0.993 ± 0.14
- NP40-soluble protein abundance (concentration: 0.5mM): 1.08 ± 0.12
- NP40-soluble protein abundance (concentration: 1mM): 1.15 ± 0.35
- NP40-soluble protein abundance (concentration: 2mM): 0.959 ± 0.17
- NP40-soluble protein abundance (concentration: 4mM): 1 ± 0.29
- NP40-soluble protein abundance (concentration: 6mM): 1.03 ± 0.21
- NP40-soluble protein abundance (concentration: 8mM): 1.09 ± 0.38
- NP40-soluble protein abundance (concentration: 10mM): 0.955 ± 0.23

Target: UniProt Q7Z6L1 and related entries
- NP40-soluble protein abundance (concentration: 0.1mM): 0.924 ± 0.024
- NP40-soluble protein abundance (concentration: 0.5mM): 1.07 ± 0.049
- NP40-soluble protein abundance (concentration: 1mM): 0.926 ± 0.022
- NP40-soluble protein abundance (concentration: 2mM): 1.06 ± 0.1
- NP40-soluble protein abundance (concentration: 4mM): 0.917 ± 0.084
- NP40-soluble protein abundance (concentration: 6mM): 1.05 ± 0.091
- NP40-soluble protein abundance (concentration: 8mM): 0.913 ± 0.08
- NP40-soluble protein abundance (concentration: 10mM): 1.05 ± 0.043

Target: RAB12 (UniProt Q6IQ22)
- NP40-soluble protein abundance (concentration: 0.1mM): 1.04 ± 0.09
- NP40-soluble protein abundance (concentration: 0.5mM): 0.983 ± 0.09
- NP40-soluble protein abundance (concentration: 1mM): 0.938 ± 0.12
- NP40-soluble protein abundance (concentration: 2mM): 0.968 ± 0.068
- NP40-soluble protein abundance (concentration: 4mM): 0.924 ± 0.15
- NP40-soluble protein abundance (concentration: 6mM): 0.919 ± 0.043
- NP40-soluble protein abundance (concentration: 8mM): 0.894 ± 0.087
- NP40-soluble protein abundance (concentration: 10mM): 0.888 ± 0.12

Target: UniProt Q6F5E8 and related entries
- NP40-soluble protein abundance (concentration: 0.1mM): 1.14 ± 0.027
- NP40-soluble protein abundance (concentration: 0.5mM): 1.09 ± 0.025
- NP40-soluble protein abundance (concentration: 1mM): 1.15 ± 0.04
- NP40-soluble protein abundance (concentration: 2mM): 1.26 ± 0.05
- NP40-soluble protein abundance (concentration: 4mM): 1.37 ± 0.11
- NP40-soluble protein abundance (concentration: 6mM): 1.35 ± 0.1
- NP40-soluble protein abundance (concentration: 8mM): 1.41 ± 0.12
- NP40-soluble protein abundance (concentration: 10mM): 1.41 ± 0.12

Target: UniProt Q6ZSS7 and related entries
- NP40-soluble protein abundance (concentration: 0.1mM): 0.911 ± 0.11
- NP40-soluble protein abundance (concentration: 0.5mM): 0.781 ± 0.16
- NP40-soluble protein abundance (concentration: 1mM): 0.922 ± 0.1
- NP40-soluble protein abundance (concentration: 2mM): 0.934 ± 0.015
- NP40-soluble protein abundance (concentration: 4mM): 0.896 ± 0.025
- NP40-soluble protein abundance (concentration: 6mM): 0.948 ± 0.054
- NP40-soluble protein abundance (concentration: 8mM): 0.831 ± 0.16
- NP40-soluble protein abundance (concentration: 10mM): 0.957 ± 0.085

Target: UniProt Q86V48 and related entries
- NP40-soluble protein abundance (concentration: 0.1mM): 0.953 ± 0.056
- NP40-soluble protein abundance (concentration: 0.5mM): 0.967 ± 0.042
- NP40-soluble protein abundance (concentration: 1mM): 1.01 ± 0.051
- NP40-soluble protein abundance (concentration: 2mM): 0.99 ± 0.097
- NP40-soluble protein abundance (concentration: 4mM): 1.03 ± 0.088
- NP40-soluble protein abundance (concentration: 6mM): 1.08 ± 0.081
- NP40-soluble protein abundance (concentration: 8mM): 1.17 ± 0.1
- NP40-soluble protein abundance (concentration: 10mM): 1.2 ± 0.11

Target: UniProt Q6P1N0 and related entries
- NP40-soluble protein abundance (concentration: 0.1mM): 1.01 ± 0.062
- NP40-soluble protein abundance (concentration: 0.5mM): 0.997 ± 0.052
- NP40-soluble protein abundance (concentration: 1mM): 0.977 ± 0.037
- NP40-soluble protein abundance (concentration: 2mM): 0.969 ± 0.05
- NP40-soluble protein abundance (concentration: 4mM): 0.973 ± 0.039
- NP40-soluble protein abundance (concentration: 6mM): 0.971 ± 0.034
- NP40-soluble protein abundance (concentration: 8mM): 0.962 ± 0.033
- NP40-soluble protein abundance (concentration: 10mM): 0.968 ± 0.057

Target: TRIM65 (UniProt Q6PJ69)
- NP40-soluble protein abundance (concentration: 0.1mM): 1.08 ± 0.05
- NP40-soluble protein abundance (concentration: 0.5mM): 1.08 ± 0.075
- NP40-soluble protein abundance (concentration: 1mM): 1.02 ± 0.05
- NP40-soluble protein abundance (concentration: 2mM): 0.988 ± 0.035
- NP40-soluble protein abundance (concentration: 4mM): 0.989 ± 0.01
- NP40-soluble protein abundance (concentration: 6mM): 0.949 ± 0.036
- NP40-soluble protein abundance (concentration: 8mM): 0.9644 ± 0.0084
- NP40-soluble protein abundance (concentration: 10mM): 0.93 ± 0.062
